US20090239936A1, “Prophylactic and Therapeutic Agent for Cancer” (priority 2006, published 2009)
Some results were stated once for a whole list of compounds, not compound by compound.

Test system: P-glycoprotein
Experiment: P-glycoprotein expression level by western blotting after drug addition
Type: cell-based, human
Conditions: HCT-15 cells and SW620 cells, endogenous P-glycoprotein, western blotting (FIG. 1)
Description: In […] HCT-15 cells (obtained from Developmental Therapeutics Program, National Cancer Institute, National Institutes of Health, Bethesda, Md., USA) and […] SW620 cells (obtained from Developmental Therapeutics Program, National Cancer Institute, National Institutes of Health, Bethesda, Md., USA), which expressed P-glycoprotein at a high level, screening of drugs that reduced the expression level of P-glycoprotein was performed by western blotting. […]
Inhibitory effects of MEK inhibitor U0126 on the expression level of P-glycoprotein in HCT-15 and SW620 cells prepared by the same procedure as described in PREPARATION EXAMPLE 1 in which endogenous P-glycoprotein was expressed and in the MCF-7/MDR and MDA-MB-231/MDR cells in which exogenous P-glycoprotein was expressed were monitored with passage of time in a manner similar to EXAMPLE 1. […]
Using MEK inhibitor PD098059 (purchased from Cell Signaling Technology; see English, J. et al. (1999) Exp. Cell Res. 253, 255), which has an action mechanism different from U0126, inhibitory effects of MEK inhibitor PD098059 on the expression level of P-glycoprotein in the HCT-15 and SW620 cells in which endogenous P-glycoprotein was expressed and in the MCF-7/MDR and MDA-MB-231/MDR cells in which exogenous P-glycoprotein was expressed were monitored with passage of time in a manner similar to EXAMPLE 1. […]

`CSCC[C@H](NC(=O)c1ccc(NC[C@@H](N)CS)cc1-c1ccccc1)C(=O)O` [FTI-277, N-[4-[2-(R)-amino-3-mercaptopropyl]amino-2-phenyl-benzoyl]methionine] was tested, and the P-glycoprotein expression level was ≤ 20 % of control.
